Experiment [1] concerns the target T1, monomeric protein S in plasma (human, UniProt P07225 42-676).
T1 construct: mature; also called monomers
T1 sequence (looked up): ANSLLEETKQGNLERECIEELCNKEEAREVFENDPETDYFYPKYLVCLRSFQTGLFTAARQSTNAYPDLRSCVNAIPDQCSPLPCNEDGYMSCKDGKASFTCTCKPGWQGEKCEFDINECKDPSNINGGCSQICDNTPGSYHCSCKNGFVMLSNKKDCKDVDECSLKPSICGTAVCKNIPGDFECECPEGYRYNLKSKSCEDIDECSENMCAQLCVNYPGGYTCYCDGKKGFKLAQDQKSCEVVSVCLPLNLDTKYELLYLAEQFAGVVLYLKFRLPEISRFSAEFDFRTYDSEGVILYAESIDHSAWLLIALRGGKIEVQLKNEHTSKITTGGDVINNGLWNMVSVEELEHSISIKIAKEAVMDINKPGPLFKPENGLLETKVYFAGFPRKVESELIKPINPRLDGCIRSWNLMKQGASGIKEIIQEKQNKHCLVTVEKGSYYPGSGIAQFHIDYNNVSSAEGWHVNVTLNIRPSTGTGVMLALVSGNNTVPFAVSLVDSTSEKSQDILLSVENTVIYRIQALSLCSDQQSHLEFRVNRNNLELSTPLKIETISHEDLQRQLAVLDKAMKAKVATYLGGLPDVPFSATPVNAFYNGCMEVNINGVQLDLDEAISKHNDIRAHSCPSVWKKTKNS
In words: ligand blot from native 4-15% PAGE of Sephacryl-300 fractions of hirudin-plasma. On the procedure:
(§1) Gel filtration - - - Purified protein S preparations or hirudin-plasma (200 μl ) were fractionated on a 1×30 cm Superose-6 HR column using Fast Performance Liquid Chromatography (Amersham-Pharmacia, Piscattaway, N.J.) at a flow rate of 0.4 ml/min in Hepes-buffered saline (HBS). Hirudin and citrated plasmas (300 ul) were each mixed with 700 μl of 50 mM benzamidine and fractionated on a 1.6×60 cm Sephacryl-300 column at a flow rate of 0.4 ml/min in Tris-buffered saline. Fractions were analyzed for protein S antigen by ELISA, for protein S multimers by native PAGE, and for PS-direct. ELISAs were also performed on the fractions for FV, FX, and C4BP antigens
(§2) To further separate protein S forms in plasma, hirudin-plasma and citrated plasma were each subjected to gel filtration on a larger column (FIGS. 8B and 8C). […] Biotin-FXa could ligand blot (Heeb, et al. Protein S binds to and inhibits factor Xa. Proc Natl Acad Sci USA. 1994;91:2728-2732) to PS-C4BP, multimeric and monomeric protein S in fractionated hirudin plasma (FIG. 8C).

Amino acid sequences for entries named in this document (tags omitted). A change or cut given only in a name is not applied to a line headed by its entry.
UniProt P04003: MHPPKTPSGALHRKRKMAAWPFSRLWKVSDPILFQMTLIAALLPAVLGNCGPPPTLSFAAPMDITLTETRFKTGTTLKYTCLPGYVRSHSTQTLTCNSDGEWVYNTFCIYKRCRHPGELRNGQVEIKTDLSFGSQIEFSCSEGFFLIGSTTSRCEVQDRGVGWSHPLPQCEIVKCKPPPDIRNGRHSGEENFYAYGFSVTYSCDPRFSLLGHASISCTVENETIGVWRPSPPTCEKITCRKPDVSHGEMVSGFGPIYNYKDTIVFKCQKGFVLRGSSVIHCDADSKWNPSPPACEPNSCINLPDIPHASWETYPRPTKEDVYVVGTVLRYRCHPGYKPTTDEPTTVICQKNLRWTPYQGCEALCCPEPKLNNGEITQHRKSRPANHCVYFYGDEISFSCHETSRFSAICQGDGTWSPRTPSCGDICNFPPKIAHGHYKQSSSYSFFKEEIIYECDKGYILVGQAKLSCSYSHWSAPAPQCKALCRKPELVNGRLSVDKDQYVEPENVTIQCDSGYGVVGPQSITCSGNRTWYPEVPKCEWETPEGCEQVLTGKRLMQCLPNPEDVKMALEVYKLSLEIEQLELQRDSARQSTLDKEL
UniProt P20851: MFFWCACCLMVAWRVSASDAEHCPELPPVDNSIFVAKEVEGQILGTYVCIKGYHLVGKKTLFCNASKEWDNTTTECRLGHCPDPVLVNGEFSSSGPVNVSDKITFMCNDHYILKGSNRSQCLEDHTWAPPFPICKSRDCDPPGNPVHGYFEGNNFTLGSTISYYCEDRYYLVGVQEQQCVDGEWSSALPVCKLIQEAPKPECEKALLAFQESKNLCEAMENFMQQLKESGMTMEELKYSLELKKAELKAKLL
UniProt P00742: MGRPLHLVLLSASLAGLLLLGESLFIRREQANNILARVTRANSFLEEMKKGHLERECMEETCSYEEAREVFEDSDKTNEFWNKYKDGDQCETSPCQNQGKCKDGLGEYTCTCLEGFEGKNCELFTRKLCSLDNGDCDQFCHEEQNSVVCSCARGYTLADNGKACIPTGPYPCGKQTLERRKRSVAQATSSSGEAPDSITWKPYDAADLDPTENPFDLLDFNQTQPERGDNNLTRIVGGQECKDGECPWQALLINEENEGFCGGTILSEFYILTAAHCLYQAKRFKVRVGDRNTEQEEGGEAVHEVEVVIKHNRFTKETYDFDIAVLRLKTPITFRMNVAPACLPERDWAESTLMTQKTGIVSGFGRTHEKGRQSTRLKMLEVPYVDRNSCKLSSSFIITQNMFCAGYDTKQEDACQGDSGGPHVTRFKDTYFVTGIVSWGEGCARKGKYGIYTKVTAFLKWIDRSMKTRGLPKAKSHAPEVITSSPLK

For experiment [2], the target named is T2, multimeric protein S in plasma (human, UniProt P07225 42-676).
T2 construct: mature; also called protein S multimers in plasma; putative protein S multimers
T2 sequence (looked up): T1 sequence (looked up)
The experiment is described as above. The procedure:
as §1, §2

The target of experiment [3] is Protein S-C4b-binding protein complex in fractionated hirudin-plasma (human) (UniProt P07225+P04003+P20851). The description is as above.
Experiment [4] deals with T3, immunoaffinity-purified recombinant protein S, P07225.
T3 chain: T1 sequence (looked up)
In words: self-association; sedimentation velocity analytical ultracentrifugation. To be noted: remark: other sources report otherwise.

The target in experiment [5] is T3, immunoaffinity-purified recombinant …. As to the kind of experiment: self-association; Superose-6 gel filtration and native 8% PAGE. Conditions: remark: other sources report otherwise. (In general: SEC sorts molecules by how far they enter the pores of the column.)
For experiment [6], the target named is T4, monomeric protein S in plasma (human), P07225.
T4 chain: T1 sequence (looked up)
As to the kind of experiment: self-association; immunoblot of plasma from native PAGE. Conditions: remark: other sources report otherwise. For orientation: In western blotting, separated proteins are transferred to a membrane and probed.

No constants are given. Whether binding was seen depends on the method and setting. Some results given as binding are weak or reduced against the parent protein; the word gives no strength.

As to “Biotin-FXa (from UniProt P00742 41-179; P00742 235-488) (enzyme)”, the binding result in experiment [1], in experiment [2] and in experiment [3] was “binds” in each case.

B1: immunoaffinity-purified recombinant protein S, P07225 42-676 (protein, UniProt P07225 42-676, looked up)
chain: T1 sequence (looked up)
In the case of B1, the binding result in experiment [4] and in experiment [5] was “binds” throughout.

B2: monomeric protein S in plasma, P07225 42-676 (protein, human, UniProt P07225 42-676, looked up)
chain: T1 sequence (looked up)
On to B2, for which, in experiment [6], the binding result was “binds”.

Values taken from patent US20070077603A1 (published 2007).
